The values that follow come from paper PMC5216127.

The chains behind the UniProt entries cited, without tags or fusion partners. Where a name states a change or a piece, a line headed by the entry shows the natural chain unless it says otherwise. A line that says so, or that is headed by a name, gives the form on record, which may keep a tag or linker.
Human TEAD4 (35–434, deletion 121–174) (Q15561, form named): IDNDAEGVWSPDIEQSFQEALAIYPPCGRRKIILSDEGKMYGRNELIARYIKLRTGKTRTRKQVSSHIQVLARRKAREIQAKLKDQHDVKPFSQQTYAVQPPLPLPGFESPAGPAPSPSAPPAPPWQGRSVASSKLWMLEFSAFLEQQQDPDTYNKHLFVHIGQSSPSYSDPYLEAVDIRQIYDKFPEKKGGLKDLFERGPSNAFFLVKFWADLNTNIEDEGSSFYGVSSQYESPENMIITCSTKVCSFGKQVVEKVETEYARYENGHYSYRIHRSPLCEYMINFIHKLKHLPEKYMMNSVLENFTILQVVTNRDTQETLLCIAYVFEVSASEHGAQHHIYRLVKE

Results are given in words; binding and its absence hold for the method and conditions named. For part of these data: In cells and extracts the contact can be indirect. Some entries that bind do so weakly or less than the wild type. For part of these data: Where a sequence is shown, tags or fusion partners need not be part of it.

Assay [1] addresses Human TEAD4 (35–434, deletion 121–174) (human) (UniProt Q15561). The assay can be described thus: BLI; full length TEAD4 coated on chip; GST-tagged TCF4 constructs or GST in solution; Octet Red 96; both purified. A general note: Biolayer interferometry detects binding as a change in optical thickness at a sensor tip.
The target of assay [2] is TCF4 (endogenous, HEK293T) (human (endogenous in HEK293T)) (UniProt Q9NQB0). The assay can be described thus: co-IP; HEK293T cells treated with or without Wnt3a for 4 h; lysates immunoprecipitated with anti-TCF4 antibody or control IgG, Protein A/G beads; endogenous proteins.
In assay [3] the target is Human TEAD4 (35–434, deletion 121–174) (human) (UniProt Q15561). The assay can be described thus: SEC; gel filtration of VGLL4, TEAD4, TCF4 and β-catenin with or without the SOX2 DNA; both purified. For orientation: SEC sorts molecules by how far they enter the pores of the column.

GGDDLGANDELISFKDEGEQEEKSSENSSAERDLADVKSSLVNESET (domain or fragment, UniProt Q9NQB0 8-54) [GST-tagged TCF4 (amino acids 8–54)]: the binding result in assay [1] is listed as “no binding”.

B1: VGLL4 (endogenous, HEK293T) (protein, UniProt Q14135 1-290)
chain: METPLDVLSRAASLVHADDEKREAALRGEPRIQTLPVASALSSHRTGPPPISPSKRKFSMEPGDEDLDCDNDHVSKMSRIFNPHLNKTANGDCRRDPRERSRSPIERAVAPTMSLHGSHLYTSLPSLGLEQPLALTKNSLDASRPAGLSPTLTPGERQQNRPSVITCASAGARNCNLSHCPIAHSGCAAPGPASYRRPPSAATTCDPVVEEHFRRSLGKNYKEPEPAPNSVSITGSVDDHFAKALGDTWLQIKAAKDGASSSPESASRRGQPASPSAHMVSHSHSPSVVS
With B1, in assay [2], the binding entry is “binds”.

B2: VGLL4 (203–256) (domain or fragment, UniProt Q14135 203-256)
chain: TTCDPVVEEHFRRSLGKNYKEPEPAPNSVSITGSVDDHFAKALGDTWLQIKAAK
With B2, the binding entry in assay [3] is recorded as “binds”.
